Source: PMC8699254
No constants are given. Whether binding was seen depends on the method and setting. Binding seen in cells or lysates may run through a third protein. Some results given as binding are weak or reduced against the parent protein; the word gives no strength. Sequences can lack the tags named with a protein.

Amino acid sequences for entries named in this document (tags omitted).
UniProt Q14289: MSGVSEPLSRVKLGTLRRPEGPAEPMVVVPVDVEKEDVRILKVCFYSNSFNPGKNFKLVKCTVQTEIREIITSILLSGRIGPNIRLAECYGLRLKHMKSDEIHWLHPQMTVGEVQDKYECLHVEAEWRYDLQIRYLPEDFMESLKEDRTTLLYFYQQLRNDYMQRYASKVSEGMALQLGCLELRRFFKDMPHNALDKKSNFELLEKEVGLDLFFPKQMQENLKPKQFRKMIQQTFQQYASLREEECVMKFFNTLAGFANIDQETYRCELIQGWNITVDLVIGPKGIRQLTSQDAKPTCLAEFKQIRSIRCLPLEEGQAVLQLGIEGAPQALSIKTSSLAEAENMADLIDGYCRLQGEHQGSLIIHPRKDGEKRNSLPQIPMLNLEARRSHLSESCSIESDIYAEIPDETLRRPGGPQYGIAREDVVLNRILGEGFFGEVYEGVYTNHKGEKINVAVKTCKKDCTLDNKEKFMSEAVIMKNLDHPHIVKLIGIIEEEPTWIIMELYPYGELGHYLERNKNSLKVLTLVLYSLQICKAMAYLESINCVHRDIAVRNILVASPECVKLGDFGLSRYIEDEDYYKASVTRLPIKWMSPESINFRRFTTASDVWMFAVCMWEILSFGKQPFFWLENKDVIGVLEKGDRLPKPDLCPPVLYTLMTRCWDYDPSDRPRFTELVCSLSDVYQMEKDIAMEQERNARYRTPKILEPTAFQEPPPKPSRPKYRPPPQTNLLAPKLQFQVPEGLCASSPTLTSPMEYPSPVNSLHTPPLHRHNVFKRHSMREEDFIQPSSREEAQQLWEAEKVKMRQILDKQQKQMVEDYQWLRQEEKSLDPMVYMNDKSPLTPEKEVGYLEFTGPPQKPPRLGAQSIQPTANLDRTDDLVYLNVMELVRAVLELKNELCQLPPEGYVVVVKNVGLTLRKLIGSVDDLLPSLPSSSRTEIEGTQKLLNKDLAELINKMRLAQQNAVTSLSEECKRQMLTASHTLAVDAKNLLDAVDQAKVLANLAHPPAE

Target: T1, Strep-tagged PEAK3 (ST-PEAK3), wild type (human) (UniProt Q6ZS72)
T1 sequence: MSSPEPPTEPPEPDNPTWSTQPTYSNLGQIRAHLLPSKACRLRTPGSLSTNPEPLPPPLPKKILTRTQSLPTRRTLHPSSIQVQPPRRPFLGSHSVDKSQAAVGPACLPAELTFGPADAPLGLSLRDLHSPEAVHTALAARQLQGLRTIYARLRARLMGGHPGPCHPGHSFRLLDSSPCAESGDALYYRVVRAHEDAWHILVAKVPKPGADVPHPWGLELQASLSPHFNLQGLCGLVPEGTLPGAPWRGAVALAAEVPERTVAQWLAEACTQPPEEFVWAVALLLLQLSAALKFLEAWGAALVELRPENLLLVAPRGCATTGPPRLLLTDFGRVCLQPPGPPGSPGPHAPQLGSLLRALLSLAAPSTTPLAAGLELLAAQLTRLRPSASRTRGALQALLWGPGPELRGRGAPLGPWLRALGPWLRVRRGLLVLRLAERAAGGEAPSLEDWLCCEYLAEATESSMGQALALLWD
Test: pull-down; ST-PEAK3 (WT or A436E) pulled down from lysates of U2OS (Figure 5b) and THP1 cells (Figure 5c, 6c), western blot of endogenous partners; THP1 cells also treated or not with pervanadate (0.1 uM, 15 min) or PYK2 inhibitor (1 uM, 2 h)

- binding: binds
Substance: FAK-like tyrosine kinase PYK2 (endogenous) (from UniProt Q14289 1-1009) (enzyme)
